Measurements reported in ChEMBL document CHEMBL3351785, “Discovery of nanomolar phosphoinositide 3-kinase gamma (PI3Kγ) inhibitors using ligand-based modeling and virtual screening followed by in vitro analysis” (Eur J Med Chem, 2014).

By UniProt entry, the sequences of proteins in these tests, tags left out. Where a name states a change or a piece, a line headed by the entry shows the natural chain unless it says otherwise.
UniProt P48736: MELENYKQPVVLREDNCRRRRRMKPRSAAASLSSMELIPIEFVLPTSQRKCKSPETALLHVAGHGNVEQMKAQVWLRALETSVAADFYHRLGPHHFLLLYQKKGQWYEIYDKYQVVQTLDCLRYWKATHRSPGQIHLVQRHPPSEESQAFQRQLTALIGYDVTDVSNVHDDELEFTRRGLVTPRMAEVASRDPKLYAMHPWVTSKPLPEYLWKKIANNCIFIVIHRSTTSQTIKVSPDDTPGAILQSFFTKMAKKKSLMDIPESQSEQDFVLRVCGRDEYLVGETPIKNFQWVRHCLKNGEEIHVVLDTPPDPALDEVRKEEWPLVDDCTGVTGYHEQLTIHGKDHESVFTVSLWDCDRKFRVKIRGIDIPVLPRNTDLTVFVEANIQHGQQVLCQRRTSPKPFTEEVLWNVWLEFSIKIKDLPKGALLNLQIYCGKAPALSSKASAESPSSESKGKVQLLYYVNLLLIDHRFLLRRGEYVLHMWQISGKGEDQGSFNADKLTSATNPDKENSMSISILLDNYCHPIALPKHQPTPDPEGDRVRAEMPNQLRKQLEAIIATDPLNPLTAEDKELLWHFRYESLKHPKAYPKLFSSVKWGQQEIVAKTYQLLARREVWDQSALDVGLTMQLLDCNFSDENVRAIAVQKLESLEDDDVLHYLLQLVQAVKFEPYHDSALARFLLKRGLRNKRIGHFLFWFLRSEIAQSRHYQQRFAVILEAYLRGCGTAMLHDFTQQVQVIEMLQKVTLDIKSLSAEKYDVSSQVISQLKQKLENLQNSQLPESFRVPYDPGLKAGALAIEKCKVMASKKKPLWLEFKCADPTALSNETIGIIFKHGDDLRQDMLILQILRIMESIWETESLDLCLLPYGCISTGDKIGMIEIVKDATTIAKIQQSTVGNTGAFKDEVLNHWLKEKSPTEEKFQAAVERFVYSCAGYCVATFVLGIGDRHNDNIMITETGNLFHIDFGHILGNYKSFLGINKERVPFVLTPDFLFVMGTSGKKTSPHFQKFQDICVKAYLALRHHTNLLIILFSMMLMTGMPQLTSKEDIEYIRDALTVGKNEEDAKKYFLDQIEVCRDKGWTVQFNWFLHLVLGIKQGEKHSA

Target: Phosphatidylinositol 4,5-bisphosphate 3-kinase catalytic subunit gamma isoform (Homo sapiens, UniProt P48736)
Experiment: Inhibition of PI3Kgamma (unknown origin) assessed as decrease in fluorescence intensity using phosphorylated substrate

| SMILES | IC50 [mM] |
| --- | --- |
| Cn1c(=O)c2c(ncn2C)n(C)c1=O [CAFFEINE] | 3.63 |
| Cn1c(=O)c2[nH]cnc2n(C)c1=O [THEOPHYLLINE] | 2.9 |
